Results are given in words; binding and its absence hold for the method and conditions named. Tags and fused reporters may be left off the sequences shown.
Molecular target: GST-ETV4(1-480)(K1234R) (mouse) (UniProt P28322)
Test: pull-down; GST pulldown: GST-ETV4 forms (SUMOylated in a bacterial expression system, or not) as bait, recombinant MBP-RNF4 as prey; pulled down RNF4 detected by immunoblotting with anti-RNF4 antibody (Figure 1C-F); both purified

The chains behind the UniProt entries cited, without tags or fusion partners. Where a name states a change or a piece, a line headed by the entry shows the natural chain unless it says otherwise.
UniProt P28322: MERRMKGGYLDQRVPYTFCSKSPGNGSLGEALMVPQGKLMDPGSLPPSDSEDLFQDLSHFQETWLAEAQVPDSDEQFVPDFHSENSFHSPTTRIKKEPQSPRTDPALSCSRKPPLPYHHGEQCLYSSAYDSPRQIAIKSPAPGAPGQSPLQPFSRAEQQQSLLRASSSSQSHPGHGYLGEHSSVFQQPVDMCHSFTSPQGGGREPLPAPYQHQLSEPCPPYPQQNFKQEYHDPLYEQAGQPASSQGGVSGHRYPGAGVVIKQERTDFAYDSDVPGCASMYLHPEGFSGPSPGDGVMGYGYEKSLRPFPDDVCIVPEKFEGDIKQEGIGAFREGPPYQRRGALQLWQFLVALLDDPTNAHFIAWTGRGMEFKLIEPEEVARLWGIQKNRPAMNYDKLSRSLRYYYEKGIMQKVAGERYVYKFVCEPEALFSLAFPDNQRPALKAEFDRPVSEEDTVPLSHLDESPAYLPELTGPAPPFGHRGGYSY

B1: MBP-RNF4(WT) (protein, UniProt O88846 1-194)
chain: MSTRNPQRKRRGGAVNSRQTQKRTRETTSTPEISLEAEPIELVETVGDEIVDLTCESLEPVVVDLTHNDSVVIVEERRRPRRNGRRLRQDHADSCVVSSDDEELSKDKDVYVTTHTPRSTKDEGTTGLRPSGTVSCPICMDGYSEIVQNGRLIVSTECGHVFCSQCLRDSLKNANTCPTCRKKINHKRYHPIYI
How did the binding turn out when B1 was run?
Its binding is “no binding”.

From article PMC5445624
